Measured values reported in US11939617B2, “Functionally modified polypeptides and radiobiosynthesis” (Ikaria Inc., priority 2016, dated 2024).
At least one compound was matched to its structure with a doubt left.

Sequences of proteins named here, by UniProt entry; tags and fusion partners are left off. Residues count along the entry.
UniProt P02768, 25-609: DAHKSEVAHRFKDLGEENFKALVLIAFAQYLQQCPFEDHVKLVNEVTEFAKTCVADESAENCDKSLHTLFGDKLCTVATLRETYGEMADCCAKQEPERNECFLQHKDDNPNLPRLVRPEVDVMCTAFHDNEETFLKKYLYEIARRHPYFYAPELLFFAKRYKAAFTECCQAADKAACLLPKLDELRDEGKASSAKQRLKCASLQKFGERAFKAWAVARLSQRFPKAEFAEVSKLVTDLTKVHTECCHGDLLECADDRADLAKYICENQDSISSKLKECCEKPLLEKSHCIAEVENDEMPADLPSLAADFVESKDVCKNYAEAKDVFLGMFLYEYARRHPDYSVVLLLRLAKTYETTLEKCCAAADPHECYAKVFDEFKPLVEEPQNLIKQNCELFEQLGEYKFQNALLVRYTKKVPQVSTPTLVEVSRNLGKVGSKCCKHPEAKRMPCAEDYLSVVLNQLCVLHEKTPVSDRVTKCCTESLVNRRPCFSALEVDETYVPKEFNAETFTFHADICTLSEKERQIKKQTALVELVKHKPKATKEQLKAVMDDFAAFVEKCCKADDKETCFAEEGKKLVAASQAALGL

Target: HSA (Homo sapiens, UniProt P02768)
Assay: chromatographic assay of HSA binding
Settings: statement in words
Source text: To assess albumin binding, any assay designed to measure albumin binding can be used. Chromatographic binding assays are especially useful, such as that described by Hage, D S, et al. J (Chromatogr B Biomed Sci Appl. 2000, 739:39-54). Alternatively or in conjunction, binding affinity to albumin can be determined by using surface plasmon resonance. In one method, a BIAcore 200 device (BIAcore Inc.; Piscataway, NJ) is used in combination with a procedure by Lacy, S E, et al. (MAbs, 2015. 7:605-19) as modified herein. Briefly, human and mouse albumin are captured on a CM5 chip using amine coupling at 5000 resonance units. The candidate polypeptides are injected at various concentrations (e.g., 0, 0.625, 1.25, 5, and 10 μM) at a controlled flow rate (e.g., 20 μl/min). The bound peptides are allowed to dissociate for a period of time (e.g., 5 min) before matrix regeneration using 10 mM glycine, pH 3. The signal from an injection passing over an uncoupled cell is subtracted from that of an immobilized cell to generate sensorgrams of the amount of polypeptide bound as a function of time. […] Alternatively or in conjunction, affinity to albumin can be determined using a direct assay, such as described by Nguyen, A, et al. (Protein Eng Des Sel. 2006, 19:291-7). […] Unbound candidate polypeptides are washed away, and bound candidate polypeptides detected using a radioactivity plate reader. […]

## N[C@@H](CCCCNC(=O)CCCc1ccc(I)cc1)C(=O)O [nnAA 1, Nε-(4-(4-iodophenyl)butanoyl)lysine]
  albumin binding: strongly associates with albumin
